Results: the supplement of paper PMC6411743
± gives the standard deviation of the averaged measurements. The entries are a selection whose mix differs from that of the whole data set.

Sequences of proteins named here, by UniProt entry; tags and fusion partners are left off. A change or cut given only in a name is not applied to a line headed by its entry.
UniProt P51532, whole entry: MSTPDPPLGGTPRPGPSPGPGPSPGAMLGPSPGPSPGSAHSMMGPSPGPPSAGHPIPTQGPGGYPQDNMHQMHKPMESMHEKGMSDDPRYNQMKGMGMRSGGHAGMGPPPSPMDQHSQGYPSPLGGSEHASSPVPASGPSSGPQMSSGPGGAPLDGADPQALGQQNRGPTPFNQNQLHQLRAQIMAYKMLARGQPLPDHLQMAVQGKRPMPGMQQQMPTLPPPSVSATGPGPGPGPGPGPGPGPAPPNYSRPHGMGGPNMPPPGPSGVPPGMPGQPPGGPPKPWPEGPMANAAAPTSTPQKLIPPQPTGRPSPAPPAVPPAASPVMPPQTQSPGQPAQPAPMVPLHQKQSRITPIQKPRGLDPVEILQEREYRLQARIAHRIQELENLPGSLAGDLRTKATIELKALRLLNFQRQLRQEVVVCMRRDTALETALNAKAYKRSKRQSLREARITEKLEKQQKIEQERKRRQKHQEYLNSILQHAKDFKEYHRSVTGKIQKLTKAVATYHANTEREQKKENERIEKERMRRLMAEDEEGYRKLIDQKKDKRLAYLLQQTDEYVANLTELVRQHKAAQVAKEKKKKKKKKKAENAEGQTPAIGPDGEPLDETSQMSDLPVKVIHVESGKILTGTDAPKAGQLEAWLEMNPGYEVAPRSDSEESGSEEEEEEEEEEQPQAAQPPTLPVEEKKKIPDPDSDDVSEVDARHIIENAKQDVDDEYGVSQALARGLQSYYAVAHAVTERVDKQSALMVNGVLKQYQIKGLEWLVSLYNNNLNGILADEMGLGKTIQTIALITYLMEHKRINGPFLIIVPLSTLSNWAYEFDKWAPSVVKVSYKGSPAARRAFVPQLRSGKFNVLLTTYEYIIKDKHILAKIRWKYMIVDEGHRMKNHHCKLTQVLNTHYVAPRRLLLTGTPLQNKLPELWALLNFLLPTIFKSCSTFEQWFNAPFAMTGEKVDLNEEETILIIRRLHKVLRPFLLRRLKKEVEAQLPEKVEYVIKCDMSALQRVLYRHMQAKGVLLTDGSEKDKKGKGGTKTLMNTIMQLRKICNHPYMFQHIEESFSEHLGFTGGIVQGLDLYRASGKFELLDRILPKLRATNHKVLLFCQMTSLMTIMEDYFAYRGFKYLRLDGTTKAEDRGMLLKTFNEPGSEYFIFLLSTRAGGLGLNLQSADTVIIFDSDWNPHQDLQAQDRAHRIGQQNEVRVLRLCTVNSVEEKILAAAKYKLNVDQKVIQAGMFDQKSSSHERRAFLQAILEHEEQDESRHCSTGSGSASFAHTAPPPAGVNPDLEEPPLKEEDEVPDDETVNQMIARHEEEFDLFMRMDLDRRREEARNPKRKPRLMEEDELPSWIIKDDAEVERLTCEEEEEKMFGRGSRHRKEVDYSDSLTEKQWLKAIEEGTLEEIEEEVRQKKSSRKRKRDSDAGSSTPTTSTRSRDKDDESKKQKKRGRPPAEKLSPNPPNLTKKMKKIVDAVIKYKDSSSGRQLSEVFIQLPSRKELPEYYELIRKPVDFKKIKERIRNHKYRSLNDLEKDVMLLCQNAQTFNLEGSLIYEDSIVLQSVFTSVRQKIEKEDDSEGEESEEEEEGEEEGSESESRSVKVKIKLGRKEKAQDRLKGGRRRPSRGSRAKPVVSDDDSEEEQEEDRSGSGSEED
UniProt P49915: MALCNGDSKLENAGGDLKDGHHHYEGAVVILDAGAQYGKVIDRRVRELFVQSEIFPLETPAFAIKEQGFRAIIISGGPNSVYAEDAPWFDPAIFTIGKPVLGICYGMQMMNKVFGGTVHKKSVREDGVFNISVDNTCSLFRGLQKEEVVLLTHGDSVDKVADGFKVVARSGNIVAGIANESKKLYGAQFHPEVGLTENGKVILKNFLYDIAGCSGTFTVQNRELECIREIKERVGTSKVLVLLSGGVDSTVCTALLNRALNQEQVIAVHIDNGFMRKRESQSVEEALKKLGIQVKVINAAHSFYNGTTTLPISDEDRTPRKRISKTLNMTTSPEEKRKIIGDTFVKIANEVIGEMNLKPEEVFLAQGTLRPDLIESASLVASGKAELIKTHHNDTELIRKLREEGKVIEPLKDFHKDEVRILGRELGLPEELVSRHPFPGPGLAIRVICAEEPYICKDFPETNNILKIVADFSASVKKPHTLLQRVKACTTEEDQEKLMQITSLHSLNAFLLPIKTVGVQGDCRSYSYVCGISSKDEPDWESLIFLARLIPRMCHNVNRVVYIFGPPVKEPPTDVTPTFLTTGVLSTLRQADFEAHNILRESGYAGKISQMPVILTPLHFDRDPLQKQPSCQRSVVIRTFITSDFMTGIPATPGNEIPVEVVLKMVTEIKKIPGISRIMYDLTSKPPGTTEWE
UniProt P41134: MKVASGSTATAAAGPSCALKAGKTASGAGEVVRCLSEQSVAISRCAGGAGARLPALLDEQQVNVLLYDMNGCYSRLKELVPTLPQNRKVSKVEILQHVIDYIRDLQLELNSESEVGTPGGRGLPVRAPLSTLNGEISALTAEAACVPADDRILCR
UniProt P51659: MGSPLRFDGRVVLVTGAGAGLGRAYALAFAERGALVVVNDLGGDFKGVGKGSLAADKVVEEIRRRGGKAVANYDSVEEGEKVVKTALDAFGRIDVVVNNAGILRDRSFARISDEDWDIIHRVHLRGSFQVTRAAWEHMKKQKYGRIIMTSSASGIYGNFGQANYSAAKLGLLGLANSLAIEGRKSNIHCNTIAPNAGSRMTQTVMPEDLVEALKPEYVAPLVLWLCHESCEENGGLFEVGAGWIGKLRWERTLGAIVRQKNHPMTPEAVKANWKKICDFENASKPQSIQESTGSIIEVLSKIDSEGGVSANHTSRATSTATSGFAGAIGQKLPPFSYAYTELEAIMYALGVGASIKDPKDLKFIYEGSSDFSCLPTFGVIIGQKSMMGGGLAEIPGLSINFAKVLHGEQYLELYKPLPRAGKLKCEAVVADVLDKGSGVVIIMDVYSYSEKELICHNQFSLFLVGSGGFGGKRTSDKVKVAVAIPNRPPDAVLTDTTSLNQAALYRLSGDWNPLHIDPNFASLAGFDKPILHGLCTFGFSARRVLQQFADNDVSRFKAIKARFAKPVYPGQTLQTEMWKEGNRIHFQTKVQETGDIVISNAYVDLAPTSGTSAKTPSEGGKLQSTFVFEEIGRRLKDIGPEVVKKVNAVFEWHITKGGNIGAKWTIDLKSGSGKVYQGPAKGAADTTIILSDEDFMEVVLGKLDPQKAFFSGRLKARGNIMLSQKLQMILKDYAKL
UniProt P37837: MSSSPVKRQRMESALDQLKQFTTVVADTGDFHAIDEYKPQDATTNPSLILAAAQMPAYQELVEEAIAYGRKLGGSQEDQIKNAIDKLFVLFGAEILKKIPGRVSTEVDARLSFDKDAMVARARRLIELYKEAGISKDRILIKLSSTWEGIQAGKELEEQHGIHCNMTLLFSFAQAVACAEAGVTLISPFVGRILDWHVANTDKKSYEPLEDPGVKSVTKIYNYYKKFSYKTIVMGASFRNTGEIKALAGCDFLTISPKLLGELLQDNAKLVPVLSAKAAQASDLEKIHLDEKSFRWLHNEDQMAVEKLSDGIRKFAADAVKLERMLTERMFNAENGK
UniProt P52566: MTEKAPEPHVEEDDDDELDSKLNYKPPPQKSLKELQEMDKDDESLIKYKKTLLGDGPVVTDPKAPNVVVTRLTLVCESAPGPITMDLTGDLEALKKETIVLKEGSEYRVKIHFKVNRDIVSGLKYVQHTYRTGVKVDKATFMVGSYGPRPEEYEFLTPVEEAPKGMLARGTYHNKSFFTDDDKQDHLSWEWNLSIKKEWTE
UniProt P51397: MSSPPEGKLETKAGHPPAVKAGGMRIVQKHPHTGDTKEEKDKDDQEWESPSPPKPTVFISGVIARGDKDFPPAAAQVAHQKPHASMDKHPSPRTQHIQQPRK
UniProt P45985: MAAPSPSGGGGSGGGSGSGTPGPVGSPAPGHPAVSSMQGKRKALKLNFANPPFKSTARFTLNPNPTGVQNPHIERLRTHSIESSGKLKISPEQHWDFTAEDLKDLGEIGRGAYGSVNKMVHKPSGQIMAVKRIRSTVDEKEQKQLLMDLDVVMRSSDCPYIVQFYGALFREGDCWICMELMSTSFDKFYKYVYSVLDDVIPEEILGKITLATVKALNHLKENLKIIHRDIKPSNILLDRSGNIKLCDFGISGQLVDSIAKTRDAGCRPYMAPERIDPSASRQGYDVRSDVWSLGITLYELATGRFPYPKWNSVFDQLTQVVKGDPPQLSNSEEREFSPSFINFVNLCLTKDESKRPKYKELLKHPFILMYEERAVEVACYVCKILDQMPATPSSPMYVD
UniProt P49916: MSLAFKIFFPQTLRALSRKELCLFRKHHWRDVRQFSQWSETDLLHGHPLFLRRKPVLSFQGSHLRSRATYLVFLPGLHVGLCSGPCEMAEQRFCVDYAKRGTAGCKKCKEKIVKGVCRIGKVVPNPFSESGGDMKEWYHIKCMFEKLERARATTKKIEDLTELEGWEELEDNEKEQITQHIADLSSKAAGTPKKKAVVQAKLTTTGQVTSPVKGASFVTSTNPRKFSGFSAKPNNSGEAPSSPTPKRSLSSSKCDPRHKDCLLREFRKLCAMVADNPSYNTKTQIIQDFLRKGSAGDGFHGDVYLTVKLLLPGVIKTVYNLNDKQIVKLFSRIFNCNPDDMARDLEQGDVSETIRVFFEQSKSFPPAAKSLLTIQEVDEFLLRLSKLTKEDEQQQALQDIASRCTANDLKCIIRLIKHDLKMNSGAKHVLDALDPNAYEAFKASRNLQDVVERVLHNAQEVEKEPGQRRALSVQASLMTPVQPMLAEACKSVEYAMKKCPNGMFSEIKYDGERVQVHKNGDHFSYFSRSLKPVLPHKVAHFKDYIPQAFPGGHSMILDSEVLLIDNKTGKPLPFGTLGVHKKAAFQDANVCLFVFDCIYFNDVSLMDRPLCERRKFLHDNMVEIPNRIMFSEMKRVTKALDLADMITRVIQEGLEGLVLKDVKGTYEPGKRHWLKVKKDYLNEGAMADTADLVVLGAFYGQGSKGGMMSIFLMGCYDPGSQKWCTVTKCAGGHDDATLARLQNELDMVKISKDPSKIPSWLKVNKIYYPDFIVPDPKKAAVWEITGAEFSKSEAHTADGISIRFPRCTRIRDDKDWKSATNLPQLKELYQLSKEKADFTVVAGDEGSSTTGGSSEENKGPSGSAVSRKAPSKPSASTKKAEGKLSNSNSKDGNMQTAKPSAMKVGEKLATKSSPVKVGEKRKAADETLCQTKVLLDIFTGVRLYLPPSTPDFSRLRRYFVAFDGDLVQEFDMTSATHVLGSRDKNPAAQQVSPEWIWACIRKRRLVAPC
UniProt P49796: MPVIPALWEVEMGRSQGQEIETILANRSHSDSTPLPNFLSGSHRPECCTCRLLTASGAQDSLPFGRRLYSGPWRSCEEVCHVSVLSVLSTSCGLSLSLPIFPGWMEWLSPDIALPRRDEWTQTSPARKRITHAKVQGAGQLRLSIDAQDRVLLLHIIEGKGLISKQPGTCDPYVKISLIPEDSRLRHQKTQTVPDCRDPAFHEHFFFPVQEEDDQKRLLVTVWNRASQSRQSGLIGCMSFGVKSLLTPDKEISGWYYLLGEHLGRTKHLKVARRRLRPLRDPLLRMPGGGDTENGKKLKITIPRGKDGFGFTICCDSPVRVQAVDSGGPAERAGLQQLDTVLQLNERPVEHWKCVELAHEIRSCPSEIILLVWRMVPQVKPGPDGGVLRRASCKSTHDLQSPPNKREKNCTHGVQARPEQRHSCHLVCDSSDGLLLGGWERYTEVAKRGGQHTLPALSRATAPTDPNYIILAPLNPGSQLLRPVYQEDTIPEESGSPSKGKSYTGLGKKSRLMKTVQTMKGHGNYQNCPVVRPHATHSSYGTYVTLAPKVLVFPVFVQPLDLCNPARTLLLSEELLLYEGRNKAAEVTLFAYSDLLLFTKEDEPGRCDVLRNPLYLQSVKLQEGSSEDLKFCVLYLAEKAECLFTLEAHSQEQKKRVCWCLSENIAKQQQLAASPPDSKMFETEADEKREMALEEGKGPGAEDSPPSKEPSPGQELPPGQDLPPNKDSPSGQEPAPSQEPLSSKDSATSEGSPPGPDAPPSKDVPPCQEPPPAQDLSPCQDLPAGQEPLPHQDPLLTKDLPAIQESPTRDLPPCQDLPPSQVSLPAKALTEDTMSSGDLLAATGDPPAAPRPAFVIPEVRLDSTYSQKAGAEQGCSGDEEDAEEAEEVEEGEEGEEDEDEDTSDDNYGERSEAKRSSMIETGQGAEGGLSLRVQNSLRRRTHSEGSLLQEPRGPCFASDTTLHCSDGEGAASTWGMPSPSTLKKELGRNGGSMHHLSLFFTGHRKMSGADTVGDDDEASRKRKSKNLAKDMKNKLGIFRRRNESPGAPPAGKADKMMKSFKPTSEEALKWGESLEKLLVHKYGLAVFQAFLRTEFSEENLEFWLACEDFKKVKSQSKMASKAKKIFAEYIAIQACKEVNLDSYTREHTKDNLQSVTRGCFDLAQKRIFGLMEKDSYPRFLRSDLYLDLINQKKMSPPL
UniProt P52657, whole entry: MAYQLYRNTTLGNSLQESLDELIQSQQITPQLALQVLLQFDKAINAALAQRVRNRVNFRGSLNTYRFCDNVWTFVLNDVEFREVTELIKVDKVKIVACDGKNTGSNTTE

Compound: Nc1ncnc2c1ncn2[C@@H]1O[C@H](COP(=O)(O)OP(=O)(O)OP(=O)(O)O)[C@@H](O)[C@H]1O [adenosine triphosphate]
Experiment: NP40-soluble protein abundance relative to vehicle (solubility fold change) (ratio); higher = more soluble protein in presence of ATP
Outline: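 In three independent experiments, Jurkat crude lysate made by Dounce homogenisation was treated for 10 min at room temperature and then 3 min at 37 °C with eight concentrations ranging from 0.1 to 10 mM. It was then solubilised with 0.8% NP40 plus benzonase for 60 min at 4 °C and ultracentrifuged. The supernatant was TMT-labelled for LC-MS/MS, and each value is the fold change against the detergent-processed vehicle for the same replicate, using vsn-normalised intensities.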

Target	NP40-soluble protein abundance (concentration: 1mM)	NP40-soluble protein abundance (concentration: 2mM)	NP40-soluble protein abundance (concentration: 4mM)	NP40-soluble protein abundance (concentration: 6mM)	NP40-soluble protein abundance (concentration: 8mM)	NP40-soluble protein abundance (concentration: 10mM)
UniProt P51532-2|P51532-3|P51532-4|P51532-5|Q9HBD4 and related entries	1.05 ± 0.053	1.03 ± 0.061	1.02 ± 0.058	1.08 ± 0.13	1.06 ± 0.086	1.07 ± 0.079
TXLNA (UniProt P40222)	1.01 ± 0.014	0.982 ± 0.061	1.04 ± 0.085	1.1 ± 0.053	1.06 ± 0.1	1.03 ± 0.27
PCYT1A (UniProt P49585)	0.978 ± 0.023	0.97 ± 0.028	0.9701 ± 0.0077	0.974 ± 0.053	0.948 ± 0.025	0.96 ± 0.029
UniProt P52735 and related entries	0.952 ± 0.012	0.951 ± 0.049	0.9103 ± 0.0077	0.925 ± 0.049	0.933 ± 0.097	0.932 ± 0.05
CBX5 (UniProt P45973)	1.12 ± 0.067	1.16 ± 0.041	1.189 ± 0.0073	1.29 ± 0.027	1.27 ± 0.041	1.27 ± 0.049
RPL4 (UniProt P36578)	0.979 ± 0.066	0.911 ± 0.13	0.88 ± 0.13	0.802 ± 0.15	0.655 ± 0.11	0.859 ± 0.12
RANBP2 (UniProt P49792)	1.02 ± 0.024	1.01 ± 0.036	1.03 ± 0.032	1.09 ± 0.073	1.1 ± 0.028	1.12 ± 0.043
GMPS (UniProt P49915)	1.01 ± 0.053	0.982 ± 0.052	0.965 ± 0.021	0.961 ± 0.089	0.999 ± 0.03	0.978 ± 0.036
NCAPD3 (UniProt P42695)	1.11 ± 0.041	1.08 ± 0.026	1.12 ± 0.014	1.11 ± 0.07	1.122 ± 0.0053	1.14 ± 0.048
UniProt P41134 and related entries	0.914 ± 0.12	0.882 ± 0.19	0.984 ± 0.16	1.08 ± 0.24	0.914 ± 0.086	0.863 ± 0.17
GSS (UniProt P48637)	1 ± 0.059	0.992 ± 0.066	0.97 ± 0.044	0.96 ± 0.086	0.975 ± 0.039	0.965 ± 0.044
KPNA2 (UniProt P52292)	1.06 ± 0.071	1.08 ± 0.05	1.07 ± 0.061	1.11 ± 0.04	1.08 ± 0.033	1.09 ± 0.029
UniProt P46020-2	0.981 ± 0.071	0.93 ± 0.023	0.898 ± 0.036	0.941 ± 0.07	0.95 ± 0.04	0.926 ± 0.025
HSD17B4 (UniProt P51659)	0.954 ± 0.054	0.965 ± 0.039	0.93 ± 0.043	0.922 ± 0.073	0.939 ± 0.031	0.962 ± 0.031
TALDO1 (UniProt P37837)	0.937 ± 0.028	0.914 ± 0.018	0.883 ± 0.012	0.94 ± 0.023	0.893 ± 0.03	0.866 ± 0.05
ARHGDIB (UniProt P52566)	0.993 ± 0.025	0.981 ± 0.026	0.936 ± 0.019	0.958 ± 0.062	0.928 ± 0.03	0.953 ± 0.059
PTPN9 (UniProt P43378)	1.12 ± 0.086	1.01 ± 0.04	1.01 ± 0.078	1.05 ± 0.024	0.997 ± 0.014	1.02 ± 0.049
DAP (UniProt P51397)	0.911 ± 0.11	0.935 ± 0.07	0.929 ± 0.13	1 ± 0.04	0.825 ± 0.059	0.917 ± 0.086
UniProt P45985	1 ± 0.024	1.02 ± 0.016	0.983 ± 0.037	0.997 ± 0.037	0.958 ± 0.035	0.992 ± 0.046
UniProt P49916 and related entries	1.079 ± 0.0099	1.07 ± 0.032	1.05 ± 0.022	1.073 ± 0.0018	1.12 ± 0.036	1.15 ± 0.047
UniProt P49796 and related entries	0.956 ± 0.057	0.973 ± 0.041	0.972 ± 0.026	0.942 ± 0.053	0.902 ± 0.021	0.935 ± 0.042
CASP3 (UniProt P42574)	0.997 ± 0.073	0.992 ± 0.043	0.989 ± 0.078	0.963 ± 0.064	0.975 ± 0.079	0.985 ± 0.011
UniProt P49902 and related entries	1.05 ± 0.11	1.01 ± 0.097	1.04 ± 0.096	0.874 ± 0.18	1.03 ± 0.042	1.04 ± 0.053
EIF2B2 (UniProt P49770)	0.972 ± 0.037	0.942 ± 0.018	0.948 ± 0.037	0.96 ± 0.016	1 ± 0.013	0.972 ± 0.02
ARHGDIA (UniProt P52565)	0.919 ± 0.05	0.9232 ± 0.005	0.881 ± 0.028	0.94 ± 0.05	0.904 ± 0.04	0.915 ± 0.048
STT3A (UniProt P46977)	1.04 ± 0.1	1.01 ± 0.096	1.01 ± 0.051	0.93 ± 0.1	1.03 ± 0.072	0.983 ± 0.067
KIF11 (UniProt P52732)	0.998 ± 0.021	0.993 ± 0.018	0.991 ± 0.015	0.99 ± 0.017	0.993 ± 0.022	0.97 ± 0.015
RGS19 (UniProt P49795)	1 ± 0.025	0.954 ± 0.021	0.921 ± 0.049	0.954 ± 0.056	0.981 ± 0.045	0.978 ± 0.048
GTF2A2 (UniProt P52657)	0.865 ± 0.098	0.889 ± 0.11	0.849 ± 0.077	0.886 ± 0.11	0.829 ± 0.087	0.789 ± 0.16
HADHA (UniProt P40939)	0.977 ± 0.039	0.938 ± 0.024	0.908 ± 0.023	0.919 ± 0.02	0.936 ± 0.025	0.93 ± 0.042

At a glance, part of the list above.
Target	NP40-soluble protein abundance (concentration: 1mM)	NP40-soluble protein abundance (concentration: 2mM)	NP40-soluble protein abundance (concentration: 4mM)	NP40-soluble protein abundance (concentration: 6mM)	NP40-soluble protein abundance (concentration: 8mM)	NP40-soluble protein abundance (concentration: 10mM)
GSS (UniProt P48637)	1 ± 0.059	0.992 ± 0.066	0.97 ± 0.044	0.96 ± 0.086	0.975 ± 0.039	0.965 ± 0.044
KPNA2 (UniProt P52292)	1.06 ± 0.071	1.08 ± 0.05	1.07 ± 0.061	1.11 ± 0.04	1.08 ± 0.033	1.09 ± 0.029
